These are yes or no findings as the source states them, for the method shown. In cells and extracts the contact can be indirect.
Target: T1, endogenous human TRADD (293T) (human (endogenous in 293T)) (UniProt Q15628)
T1 sequence: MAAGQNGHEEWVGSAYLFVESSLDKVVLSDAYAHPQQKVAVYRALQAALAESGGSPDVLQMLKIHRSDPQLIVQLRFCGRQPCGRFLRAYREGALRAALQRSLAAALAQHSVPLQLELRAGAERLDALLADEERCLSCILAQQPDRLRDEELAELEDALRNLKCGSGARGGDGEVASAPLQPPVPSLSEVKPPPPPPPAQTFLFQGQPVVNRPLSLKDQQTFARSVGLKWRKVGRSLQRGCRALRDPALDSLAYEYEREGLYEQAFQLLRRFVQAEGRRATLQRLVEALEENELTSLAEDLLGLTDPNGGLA
Assay: co-IP; endogenous IP of DDX24 and TRADD in 293T cells (Figure S2F)

B1: endogenous human DDX24 (293T) (protein, UniProt Q9GZR7 1-859)
chain: MKLKDTKSRPKQSSCGKFQTKGIKVVGKWKEVKIDPNMFADGQMDDLVCFEELTDYQLVSPAKNPSSLFSKEAPKRKAQAVSEEEEEEEGKSSSPKKKIKLKKSKNVATEGTSTQKEFEVKDPELEAQGDDMVCDDPEAGEMTSENLVQTAPKKKKNKGKKGLEPSQSTAAKVPKKAKTWIPEVHDQKADVSAWKDLFVPRPVLRALSFLGFSAPTPIQALTLAPAIRDKLDILGAAETGSGKTLAFAIPMIHAVLQWQKRNAAPPPSNTEAPPGETRTEAGAETRSPGKAEAESDALPDDTVIESEALPSDIAAEARAKTGGTVSDQALLFGDDDAGEGPSSLIREKPVPKQNENEEENLDKEQTGNLKQELDDKSATCKAYPKRPLLGLVLTPTRELAVQVKQHIDAVARFTGIKTAILVGGMSTQKQQRMLNRRPEIVVATPGRLWELIKEKHYHLRNLRQLRCLVVDEADRMVEKGHFAELSQLLEMLNDSQYNPKRQTLVFSATLTLVHQAPARILHKKHTKKMDKTAKLDLLMQKIGMRGKPKVIDLTRNEATVETLTETKIHCETDEKDFYLYYFLMQYPGRSLVFANSISCIKRLSGLLKVLDIMPLTLHACMHQKQRLRNLEQFARLEDCVLLATDVAARGLDIPKVQHVIHYQVPRTSEIYVHRSGRTARATNEGLSLMLIGPEDVINFKKIYKTLKKDEDIPLFPVQTKYMDVVKERIRLARQIEKSEYRNFQACLHNSWIEQAAAALEIELEEDMYKGGKADQQEERRRQKQMKVLKKELRHLLSQPLFTESQKTKYPTQSGKPPLLVSAPSKSESALSCLSKQKKKKTKKPKEPQPEQPQPSTSAN
Question: Which binding does the source give for B1 here?
Answer: Its binding is “no binding”.
